# Assay results taken from the supplement of paper PMC7666118.
# Protein sequences, listed by entry. Tags and fused reporters are not part of them. Lines headed by an entry give the natural chain unless they say otherwise; changes in a name come on top.
# UniProt P0DMV8, whole entry, looked up: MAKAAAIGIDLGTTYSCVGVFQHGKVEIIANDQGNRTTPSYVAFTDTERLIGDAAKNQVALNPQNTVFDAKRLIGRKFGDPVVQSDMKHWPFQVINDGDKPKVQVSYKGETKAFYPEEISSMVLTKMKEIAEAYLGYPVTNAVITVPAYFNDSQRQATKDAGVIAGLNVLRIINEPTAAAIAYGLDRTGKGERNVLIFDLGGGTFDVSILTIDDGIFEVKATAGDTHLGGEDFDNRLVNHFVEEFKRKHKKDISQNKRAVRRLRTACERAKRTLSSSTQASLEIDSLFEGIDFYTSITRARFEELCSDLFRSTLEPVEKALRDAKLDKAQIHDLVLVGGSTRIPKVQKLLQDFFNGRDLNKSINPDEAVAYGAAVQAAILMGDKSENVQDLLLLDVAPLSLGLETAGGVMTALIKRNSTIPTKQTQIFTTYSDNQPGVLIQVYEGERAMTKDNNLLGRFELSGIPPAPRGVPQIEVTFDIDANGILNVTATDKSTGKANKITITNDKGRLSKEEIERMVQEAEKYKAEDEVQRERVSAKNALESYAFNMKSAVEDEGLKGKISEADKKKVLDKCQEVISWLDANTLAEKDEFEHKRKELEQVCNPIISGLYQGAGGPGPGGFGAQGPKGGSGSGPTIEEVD
# UniProt P23229: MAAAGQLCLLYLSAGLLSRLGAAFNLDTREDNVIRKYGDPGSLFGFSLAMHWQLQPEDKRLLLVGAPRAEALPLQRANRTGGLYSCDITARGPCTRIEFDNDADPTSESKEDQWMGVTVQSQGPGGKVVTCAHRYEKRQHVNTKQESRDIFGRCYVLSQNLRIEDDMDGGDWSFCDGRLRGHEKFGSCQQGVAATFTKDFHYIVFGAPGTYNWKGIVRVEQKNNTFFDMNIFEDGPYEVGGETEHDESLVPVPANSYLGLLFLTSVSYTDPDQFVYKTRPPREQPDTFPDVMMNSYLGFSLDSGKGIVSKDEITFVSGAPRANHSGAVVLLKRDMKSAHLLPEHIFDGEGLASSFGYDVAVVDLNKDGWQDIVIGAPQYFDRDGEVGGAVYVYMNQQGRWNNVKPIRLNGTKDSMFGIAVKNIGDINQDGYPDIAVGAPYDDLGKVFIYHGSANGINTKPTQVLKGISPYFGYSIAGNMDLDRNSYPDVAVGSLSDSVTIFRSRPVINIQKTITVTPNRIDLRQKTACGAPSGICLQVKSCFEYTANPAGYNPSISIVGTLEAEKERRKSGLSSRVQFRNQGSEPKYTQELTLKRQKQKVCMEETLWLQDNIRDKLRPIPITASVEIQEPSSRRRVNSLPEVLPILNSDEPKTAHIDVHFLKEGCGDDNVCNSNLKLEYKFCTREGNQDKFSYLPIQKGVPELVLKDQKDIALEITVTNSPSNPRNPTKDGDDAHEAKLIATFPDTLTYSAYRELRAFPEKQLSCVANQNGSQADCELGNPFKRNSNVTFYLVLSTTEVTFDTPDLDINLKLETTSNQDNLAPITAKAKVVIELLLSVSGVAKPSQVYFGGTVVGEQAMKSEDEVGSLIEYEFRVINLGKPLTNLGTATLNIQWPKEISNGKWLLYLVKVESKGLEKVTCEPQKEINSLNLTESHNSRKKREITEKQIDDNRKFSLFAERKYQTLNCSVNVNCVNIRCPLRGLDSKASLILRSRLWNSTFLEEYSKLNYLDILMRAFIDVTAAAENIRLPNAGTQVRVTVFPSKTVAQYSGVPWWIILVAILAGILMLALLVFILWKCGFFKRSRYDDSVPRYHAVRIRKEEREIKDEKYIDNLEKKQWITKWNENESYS
# UniProt Q92835: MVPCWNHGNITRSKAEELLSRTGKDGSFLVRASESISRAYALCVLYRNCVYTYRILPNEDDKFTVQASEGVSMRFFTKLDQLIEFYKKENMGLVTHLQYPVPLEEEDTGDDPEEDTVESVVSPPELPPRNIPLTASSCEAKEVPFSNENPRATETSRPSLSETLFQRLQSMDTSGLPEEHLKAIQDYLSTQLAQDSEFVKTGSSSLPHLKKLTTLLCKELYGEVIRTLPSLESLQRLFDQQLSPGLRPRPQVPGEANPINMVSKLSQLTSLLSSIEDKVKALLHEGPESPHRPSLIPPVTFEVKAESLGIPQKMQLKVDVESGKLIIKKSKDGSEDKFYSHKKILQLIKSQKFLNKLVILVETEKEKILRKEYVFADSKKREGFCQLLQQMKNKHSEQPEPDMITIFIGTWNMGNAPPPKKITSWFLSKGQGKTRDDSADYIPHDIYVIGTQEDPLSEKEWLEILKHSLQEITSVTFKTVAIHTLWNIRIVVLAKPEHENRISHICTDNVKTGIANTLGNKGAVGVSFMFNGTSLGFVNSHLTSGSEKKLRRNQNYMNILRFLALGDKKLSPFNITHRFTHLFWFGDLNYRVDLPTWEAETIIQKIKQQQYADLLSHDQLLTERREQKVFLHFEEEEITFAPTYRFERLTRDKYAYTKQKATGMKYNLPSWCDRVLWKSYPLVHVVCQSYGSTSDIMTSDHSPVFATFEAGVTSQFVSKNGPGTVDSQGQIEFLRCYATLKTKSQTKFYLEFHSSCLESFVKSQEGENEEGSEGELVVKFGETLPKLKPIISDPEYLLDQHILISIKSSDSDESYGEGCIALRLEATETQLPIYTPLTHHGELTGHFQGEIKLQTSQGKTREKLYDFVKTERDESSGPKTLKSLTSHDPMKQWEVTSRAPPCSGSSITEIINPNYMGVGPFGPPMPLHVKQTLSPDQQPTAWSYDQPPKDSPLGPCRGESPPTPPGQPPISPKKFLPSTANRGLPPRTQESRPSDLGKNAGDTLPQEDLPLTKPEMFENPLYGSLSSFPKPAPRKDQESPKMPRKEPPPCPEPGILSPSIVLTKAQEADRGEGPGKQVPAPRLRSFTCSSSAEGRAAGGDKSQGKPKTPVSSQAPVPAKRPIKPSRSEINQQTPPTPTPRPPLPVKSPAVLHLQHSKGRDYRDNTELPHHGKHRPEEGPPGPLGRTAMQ
# UniProt Q13123, whole entry: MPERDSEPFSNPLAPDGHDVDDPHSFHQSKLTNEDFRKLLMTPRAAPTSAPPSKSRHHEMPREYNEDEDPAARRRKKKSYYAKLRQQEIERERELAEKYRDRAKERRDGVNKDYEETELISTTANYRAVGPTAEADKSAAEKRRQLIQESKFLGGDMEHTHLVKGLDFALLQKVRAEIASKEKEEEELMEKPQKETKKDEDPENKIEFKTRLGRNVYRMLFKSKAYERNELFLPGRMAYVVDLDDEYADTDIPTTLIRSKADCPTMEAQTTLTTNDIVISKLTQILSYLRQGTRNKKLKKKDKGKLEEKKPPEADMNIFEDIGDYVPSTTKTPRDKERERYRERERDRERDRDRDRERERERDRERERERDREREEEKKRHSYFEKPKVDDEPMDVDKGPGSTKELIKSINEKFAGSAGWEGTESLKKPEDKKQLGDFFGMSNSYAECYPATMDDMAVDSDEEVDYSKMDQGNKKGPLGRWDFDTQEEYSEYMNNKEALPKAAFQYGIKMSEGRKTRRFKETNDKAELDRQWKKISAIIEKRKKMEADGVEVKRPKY
# UniProt Q9UNL4, whole entry: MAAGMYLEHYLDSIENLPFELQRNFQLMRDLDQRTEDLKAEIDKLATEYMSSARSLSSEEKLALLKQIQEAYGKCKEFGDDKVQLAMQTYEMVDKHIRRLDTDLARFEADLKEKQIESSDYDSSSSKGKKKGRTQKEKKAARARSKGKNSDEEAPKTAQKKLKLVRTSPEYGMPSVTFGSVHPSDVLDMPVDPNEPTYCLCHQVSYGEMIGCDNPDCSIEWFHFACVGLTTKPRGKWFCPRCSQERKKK
# UniProt P17096: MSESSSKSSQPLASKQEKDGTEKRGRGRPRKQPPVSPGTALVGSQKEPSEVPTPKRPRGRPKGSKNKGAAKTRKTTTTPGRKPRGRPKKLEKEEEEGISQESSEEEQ
# UniProt Q9UK76: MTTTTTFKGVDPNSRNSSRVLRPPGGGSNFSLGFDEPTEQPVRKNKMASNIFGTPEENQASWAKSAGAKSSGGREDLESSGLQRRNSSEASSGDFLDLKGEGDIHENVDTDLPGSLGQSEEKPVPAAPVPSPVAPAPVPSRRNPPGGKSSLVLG
# UniProt P35914: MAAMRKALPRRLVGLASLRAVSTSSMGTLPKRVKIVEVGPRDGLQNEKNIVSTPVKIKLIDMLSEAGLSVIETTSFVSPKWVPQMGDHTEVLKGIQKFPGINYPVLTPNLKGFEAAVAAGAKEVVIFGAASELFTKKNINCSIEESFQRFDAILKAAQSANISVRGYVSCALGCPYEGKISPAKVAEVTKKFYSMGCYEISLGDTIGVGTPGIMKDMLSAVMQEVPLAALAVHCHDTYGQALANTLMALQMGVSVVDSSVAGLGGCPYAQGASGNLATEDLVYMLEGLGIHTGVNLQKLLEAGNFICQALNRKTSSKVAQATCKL
# UniProt Q9HBG6: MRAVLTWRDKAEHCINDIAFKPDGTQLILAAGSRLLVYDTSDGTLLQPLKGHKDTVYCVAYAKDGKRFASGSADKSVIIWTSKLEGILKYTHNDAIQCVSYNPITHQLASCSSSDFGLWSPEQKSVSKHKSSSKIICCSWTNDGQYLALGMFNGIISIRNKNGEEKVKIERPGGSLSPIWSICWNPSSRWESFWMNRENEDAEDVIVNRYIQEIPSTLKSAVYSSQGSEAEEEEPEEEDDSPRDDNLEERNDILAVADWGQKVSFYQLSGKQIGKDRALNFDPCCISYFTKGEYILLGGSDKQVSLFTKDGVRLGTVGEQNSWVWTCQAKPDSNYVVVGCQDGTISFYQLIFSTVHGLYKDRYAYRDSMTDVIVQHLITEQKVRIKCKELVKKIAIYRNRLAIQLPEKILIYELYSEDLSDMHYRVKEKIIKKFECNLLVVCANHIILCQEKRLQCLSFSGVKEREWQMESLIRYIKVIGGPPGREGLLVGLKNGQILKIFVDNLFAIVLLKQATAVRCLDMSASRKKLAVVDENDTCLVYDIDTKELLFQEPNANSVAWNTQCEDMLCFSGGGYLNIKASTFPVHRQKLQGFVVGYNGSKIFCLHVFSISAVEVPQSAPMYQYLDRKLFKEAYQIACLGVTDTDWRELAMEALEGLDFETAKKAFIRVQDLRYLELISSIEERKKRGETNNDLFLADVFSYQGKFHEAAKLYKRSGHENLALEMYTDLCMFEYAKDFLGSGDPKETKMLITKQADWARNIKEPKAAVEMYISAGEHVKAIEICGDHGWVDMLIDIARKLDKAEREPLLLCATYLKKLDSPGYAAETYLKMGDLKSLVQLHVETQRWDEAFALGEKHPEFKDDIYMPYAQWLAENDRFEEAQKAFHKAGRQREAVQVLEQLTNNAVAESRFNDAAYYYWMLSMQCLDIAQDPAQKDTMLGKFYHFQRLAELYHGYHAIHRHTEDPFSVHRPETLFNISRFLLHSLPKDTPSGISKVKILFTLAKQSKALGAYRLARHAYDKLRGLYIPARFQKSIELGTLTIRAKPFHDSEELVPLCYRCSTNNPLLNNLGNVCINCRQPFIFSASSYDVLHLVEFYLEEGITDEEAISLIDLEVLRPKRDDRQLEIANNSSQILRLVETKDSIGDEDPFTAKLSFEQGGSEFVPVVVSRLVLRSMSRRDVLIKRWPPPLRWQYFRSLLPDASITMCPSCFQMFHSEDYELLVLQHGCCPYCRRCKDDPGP
# UniProt Q96HW7, whole entry: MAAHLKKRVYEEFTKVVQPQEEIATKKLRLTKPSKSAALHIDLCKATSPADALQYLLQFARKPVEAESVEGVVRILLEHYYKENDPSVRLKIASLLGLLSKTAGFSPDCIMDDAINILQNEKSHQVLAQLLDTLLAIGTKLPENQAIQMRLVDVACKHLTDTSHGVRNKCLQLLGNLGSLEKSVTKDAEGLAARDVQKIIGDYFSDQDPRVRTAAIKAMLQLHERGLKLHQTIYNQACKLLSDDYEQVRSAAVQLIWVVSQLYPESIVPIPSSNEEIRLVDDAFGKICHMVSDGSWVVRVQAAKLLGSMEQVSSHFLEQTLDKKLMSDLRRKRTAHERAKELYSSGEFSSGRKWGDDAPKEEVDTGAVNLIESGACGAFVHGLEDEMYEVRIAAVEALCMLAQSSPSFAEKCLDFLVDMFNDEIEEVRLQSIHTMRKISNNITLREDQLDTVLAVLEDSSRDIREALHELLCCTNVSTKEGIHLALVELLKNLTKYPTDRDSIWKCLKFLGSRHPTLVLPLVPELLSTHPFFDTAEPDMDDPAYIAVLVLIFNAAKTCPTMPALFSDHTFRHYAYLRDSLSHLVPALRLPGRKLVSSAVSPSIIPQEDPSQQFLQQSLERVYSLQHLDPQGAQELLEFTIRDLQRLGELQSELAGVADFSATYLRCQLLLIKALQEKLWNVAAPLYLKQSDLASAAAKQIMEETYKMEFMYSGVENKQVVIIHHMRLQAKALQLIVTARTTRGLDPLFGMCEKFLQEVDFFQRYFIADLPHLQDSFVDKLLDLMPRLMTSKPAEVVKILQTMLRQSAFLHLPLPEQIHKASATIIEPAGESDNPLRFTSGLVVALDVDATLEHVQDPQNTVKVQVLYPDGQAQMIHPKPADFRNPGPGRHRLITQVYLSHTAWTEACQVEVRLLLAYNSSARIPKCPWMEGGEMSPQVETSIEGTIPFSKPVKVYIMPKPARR
# This is one part of the list.
# Compound: COc1ccc(Cn2ccc3ccc(C(=O)NO)cc32)cc1
# Assay: dose-dependent thermal stabilisation call (2D-TPP, DLPTP, 10% FDR) (binary (1 = stabilised)); higher = stabilised by the compound
# Details: system: HL-60 intact cells; concentration range 0.04-10 µM
row,Target,dose-dependent thermal stabilisation call
1,HSPA1A (UniProt P0DMV8),inactive: 0
2,INTS6 (UniProt Q9UL03),inactive: 0
3,IL2RG (UniProt P31785),inactive: 0
4,IFT80 (UniProt Q9P2H3),inactive: 0
5,IPO4 (UniProt Q8TEX9),inactive: 0
6,HMGN2 (UniProt P05204),inactive: 0
7,IL1RAP (UniProt Q9NPH3),inactive: 0
8,HSPA9 (UniProt P38646),active: 1
9,ITGA6 (UniProt P23229),inactive: 0
10,INTS7 (UniProt Q9NVH2),inactive: 0
11,KHK (UniProt P50053),inactive: 0
12,INPP5D (UniProt Q92835),inactive: 0
13,HTT (UniProt P42858),inactive: 0
14,HSPE1 (UniProt P61604),inactive: 0
15,INF2 (UniProt Q27J81),inactive: 0
16,KARS (UniProt Q15046),inactive: 0
17,IFRD2 (UniProt Q12894),inactive: 0
18,IK (UniProt Q13123),inactive: 0
19,KATNAL1 (UniProt Q9BW62),inactive: 0

row,Target,dose-dependent thermal stabilisation call
1,IGF1R (UniProt P08069),inactive: 0
2,ING4 (UniProt Q9UNL4),inactive: 0
3,HMGA1 (UniProt P17096),inactive: 0
4,ITFG1 (UniProt Q8TB96),inactive: 0
5,HN1 (UniProt Q9UK76),inactive: 0
6,IL17RA (UniProt Q96F46),inactive: 0
7,HMGCL (UniProt P35914),inactive: 0
8,HSDL2 (UniProt Q6YN16),inactive: 0
9,JTV1 (UniProt Q13155),inactive: 0
10,ITGAV (UniProt P06756),inactive: 0
11,HNRPA1L-2,inactive: 0
12,HMGN4 (UniProt O00479),inactive: 0
13,IGSF8 (UniProt Q969P0),inactive: 0
14,IFT122 (UniProt Q9HBG6),inactive: 0
15,ITGB1 (UniProt P05556),inactive: 0
16,HOMER1 (UniProt Q86YM7),inactive: 0
17,INTS4 (UniProt Q96HW7),inactive: 0
18,IMPDH2 (UniProt P12268),inactive: 0

# 2 consecutive records already listed:
row,Target,dose-dependent thermal stabilisation call
13,IGSF8 (UniProt Q969P0),inactive: 0
14,IFT122 (UniProt Q9HBG6),inactive: 0
